According to PubChem BioAssay AID493014 (National Center for Advancing Translational Sciences (NCATS), 2011):
The list shows a part of the results. Shown are side measurements of this screen, not its main read-out; they come without a call. Most of these compounds were active or inconclusive in the main read-out, so they are no random draw. Potencies come from curve fits of mixed quality, noted in brackets.

Assay: qHTS Assay to Find Inhibitors of Chronic Active B-Cell Receptor Signaling
Settings: ABC-DLBCL IkBa-CBG/CBR reporter, luminescence ratio (green luciferase fused to IkBa over red control in TMD8 lymphoma cells), 4 h
Method in brief: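 Cell line TMD8 (human ABC DLBCL), stably expressing tet-inducible CBG68-IkBa fusion and CBR; IMDM/0.5% FBS; cpd up to 46 uM; dox induction, 4 h, 37C/5% CO2; dual luminescence; green/red ratio; MG132 control.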

[1] = measured here: CBR red luminescence, cell number

Compound | AC50 [1] | AC50 (measured here: IkBa-CBG green luminescence)
CCCCN(C(=O)c1ccc([N+](=O)[O-])s1)c1c(N)n(CC(C)C)c(=O)[nH]c1=O | 20.6 µM [rising, partial curve, poor fit] | 
CN(CCCC[C@H](CNCc1ccc(-c2ccccc2)cc1)N1C[C@H](c2ccccc2)N(CCc2ccc(Cl)c(Cl)c2)C(=O)C1=O)Cc1ccc(-c2ccccc2)cc1 | 35.5 µM [falling, single point] | 
CCOC(=O)c1oc2ccccc2c1COC(=O)CNC(=O)c1ccc(C)cc1 | 6.51 µM [rising, single point] | 
Cc1ccc(NC(=O)/C(=C/c2ccco2)c2ccccc2)c(C)c1 | 18.4 µM [rising, partial curve] | 
CC(C)c1nc(CN(C)C(=O)N[C@H](C(=O)N[C@@H](Cc2ccccc2)C[C@H](O)[C@H](Cc2ccccc2)NC(=O)OCc2cncs2)C(C)C)cs1 | 35.5 µM [falling, single point] | 
Cc1ccc(C(=O)N/C(=C\c2ccco2)C(=O)N2CCSCC2)cc1C | 15.8 µM [rising, partial curve, poor fit] | 
COc1cc2ncc(S(=O)(=O)c3ccccc3)c(N3CCC4(CC3)OCCO4)c2cc1OC | 10 µM [falling, partial curve, poor fit] | 
CC1=C2C(=O)OC(c3ccoc3)C2(C)CCC1 (configuration not stated) | 20.6 µM [falling, partial curve] | 25.9 µM [rising, partial curve, poor fit]
CCOC(=O)c1ccc(NC(=S)Nc2ccc(Cl)cn2)cc1 | 0.398 µM [falling, full curve, poor fit] | 
CC(=O)N1CCc2cc(C(=O)CN3CCN(c4ccccn4)CC3)ccc21 | 1.26 µM [rising, full curve, poor fit] | 
C/C(CC(=O)Nc1ccc(Cl)cc1Cl)=N\NC(=O)c1ccco1 | 20.6 µM [falling, single point] | 
Cc1ccc2c(cnn2C(=O)CCCC(=O)NCc2ccc(F)cc2)c1 | 11.2 µM [rising, partial curve, poor fit] | 
Cc1nc(NC(=O)c2ccco2)sc1C(=O)O | 0.794 µM [falling, full curve] | 
CCCc1noc2c1C(c1cc(Br)ccc1F)C(C#N)=C(N)N2 (configuration not stated) | 22.4 µM [falling, single point] | 
Cc1ccc(C(=O)c2coc3ccc(O)c(Cl)c23)cc1 | 1.84 µM [falling, partial curve, poor fit] | 
Cn1c(SCC(=O)c2ccccc2)nnc1-c1ccco1 | 16.4 µM [falling, single point] | 

Reformatted in markdown: part of the list above.

| Compound | AC50 [1] | AC50 (measured here: IkBa-CBG green luminescence) |
| --- | --- | --- |
| CCOC(=O)c1oc2ccccc2c1COC(=O)CNC(=O)c1ccc(C)cc1 | 6.51 µM [rising, single point] |  |
| Cc1ccc(NC(=O)/C(=C/c2ccco2)c2ccccc2)c(C)c1 | 18.4 µM [rising, partial curve] |  |
